Consider one substance from doi:10.1101/790519.

Protein sequences, listed by entry. Tags and fused reporters are not part of them. Lines headed by an entry give the natural chain unless they say otherwise; changes in a name come on top.
UniProt Q16665: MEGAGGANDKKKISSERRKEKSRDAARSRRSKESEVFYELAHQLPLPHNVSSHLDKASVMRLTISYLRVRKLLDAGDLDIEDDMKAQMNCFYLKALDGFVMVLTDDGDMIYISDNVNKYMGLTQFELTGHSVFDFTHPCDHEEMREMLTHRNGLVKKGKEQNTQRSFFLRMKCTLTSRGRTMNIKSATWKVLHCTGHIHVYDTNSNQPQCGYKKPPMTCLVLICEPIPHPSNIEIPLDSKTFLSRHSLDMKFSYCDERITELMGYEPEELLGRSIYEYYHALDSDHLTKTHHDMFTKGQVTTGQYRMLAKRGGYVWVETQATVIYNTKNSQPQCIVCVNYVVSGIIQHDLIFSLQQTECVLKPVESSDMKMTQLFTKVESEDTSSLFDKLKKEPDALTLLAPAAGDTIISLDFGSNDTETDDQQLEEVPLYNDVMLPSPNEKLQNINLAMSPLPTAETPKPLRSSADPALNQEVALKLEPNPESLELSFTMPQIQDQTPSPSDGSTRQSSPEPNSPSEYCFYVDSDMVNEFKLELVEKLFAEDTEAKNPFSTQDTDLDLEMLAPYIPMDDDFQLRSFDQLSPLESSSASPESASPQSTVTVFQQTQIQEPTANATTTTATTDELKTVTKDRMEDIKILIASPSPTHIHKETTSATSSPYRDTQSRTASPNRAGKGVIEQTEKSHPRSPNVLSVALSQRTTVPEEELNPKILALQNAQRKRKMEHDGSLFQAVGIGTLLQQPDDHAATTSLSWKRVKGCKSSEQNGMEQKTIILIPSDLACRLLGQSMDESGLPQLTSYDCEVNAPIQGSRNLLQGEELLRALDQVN
UniProt Q15022: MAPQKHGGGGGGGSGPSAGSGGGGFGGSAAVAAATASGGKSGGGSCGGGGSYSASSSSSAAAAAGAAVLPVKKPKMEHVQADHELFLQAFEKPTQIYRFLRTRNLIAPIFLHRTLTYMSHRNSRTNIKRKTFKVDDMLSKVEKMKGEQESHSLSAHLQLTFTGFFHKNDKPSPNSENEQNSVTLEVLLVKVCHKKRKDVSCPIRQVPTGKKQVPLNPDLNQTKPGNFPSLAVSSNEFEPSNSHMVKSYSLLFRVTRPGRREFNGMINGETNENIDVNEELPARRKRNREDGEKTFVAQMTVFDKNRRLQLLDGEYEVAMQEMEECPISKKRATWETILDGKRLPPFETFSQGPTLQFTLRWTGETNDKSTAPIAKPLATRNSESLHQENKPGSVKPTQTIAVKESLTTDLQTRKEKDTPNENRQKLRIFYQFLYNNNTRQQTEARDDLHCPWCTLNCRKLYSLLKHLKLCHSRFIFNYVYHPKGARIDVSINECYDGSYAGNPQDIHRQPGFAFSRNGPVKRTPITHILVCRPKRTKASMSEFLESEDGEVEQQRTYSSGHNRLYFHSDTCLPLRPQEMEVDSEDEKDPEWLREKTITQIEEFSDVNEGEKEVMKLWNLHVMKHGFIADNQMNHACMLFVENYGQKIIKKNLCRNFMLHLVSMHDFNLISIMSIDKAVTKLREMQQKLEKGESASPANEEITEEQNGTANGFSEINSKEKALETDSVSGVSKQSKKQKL

For the assay, the target named is non-degradable HIF1α (P564A) (UniProt Q16665). The experiment in a line: co-IP.

These are yes or no findings as the source states them, for the method shown. In cells and extracts the contact can be indirect. Some binding calls cover weakened binding; strength is not graded here.

On to “SUZ12 (in 293T cells) (from UniProt Q15022 1-739)”, for which the binding entry is “binds”.
